PubChem BioAssay AID1259254 | NCATS – 2017
Screen: 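Gene knock-downs that lead to re-replication, shown by excess G2 DNA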 (primary screen). System: human HCT116 colorectal cancer cells. Reagents: single siRNA against human genes. Time to read-out: 3 days. Detection: 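Nuclei stained with Hoechst and imaged; cell-cycle phase assigned by DNA content; G2 share scaled per plate, non-targeting siRNA 0%, GMNN siRNA 100%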. Scale: G2 robust z-score and G2 cells, % of GMNN control: higher = more G2 cells, more excess DNA replication. Rule for the call: 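Active siRNAs have a G2 robust z of 5 or more median absolute deviations over the median, which in these data means about 38% or higher of GMNN control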.
The whole screen tested about 59,000 reagents; shown is a random part of them. In the full data, about 1,550 (2.6%) were called active. 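G2 share is only a proxy for re-replication; each gene was hit by three separate siRNAs, and active genes were retested.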 Further read-outs or replicates are left out here. Not stated in the record: the amount of reagent.

Knock-down of WTIP [SID160756472] resulted in: G2 robust z-score 0.664; G2 cells, % of GMNN control 7.64; inactive.
WTIP [SID160756473] showed G2 robust z-score 0.891; G2 cells, % of GMNN control 9.23; inactive.
Silencing of WTIP [SID160756474] gave: G2 robust z-score -0.14; G2 cells, % of GMNN control 1.98; inactive.
TWSG1 [SID160733656] showed G2 robust z-score 0.997; G2 cells, % of GMNN control 9.99; inactive.
For TWSG1 [SID160733657], the values are G2 robust z-score -0.65; G2 cells, % of GMNN control -1.6; inactive.
TWSG1 [SID160745527] scored G2 robust z-score 6.02; G2 cells, % of GMNN control 45.3; active.
For TBXA2R [SID160717763] the deposit lists G2 robust z-score -1.23; G2 cells, % of GMNN control -5.72; inactive.
Knock-down of TBXA2R [SID160717764] came out at: G2 robust z-score -0.172; G2 cells, % of GMNN control 1.75; inactive.
TBXA2R [SID160717765] scored G2 robust z-score 6.9; G2 cells, % of GMNN control 51.5; active.
Silencing of MRPL33 [SID160722488] gave: G2 robust z-score -0.698; G2 cells, % of GMNN control -1.94; inactive.
Knock-down of MRPL33 [SID160722489] came out at: G2 robust z-score 0.412; G2 cells, % of GMNN control 5.87; inactive.
MRPL33 [SID160735234] showed G2 robust z-score -0.315; G2 cells, % of GMNN control 0.749; inactive.
Silencing of HLA-L [SID160767946] resulted in: G2 robust z-score 0.0167; G2 cells, % of GMNN control 3.08; inactive.
After knock-down of HLA-L [SID160767947], the record shows G2 robust z-score 0.223; G2 cells, % of GMNN control 4.54; inactive.
Depletion of HLA-L [SID160767948] came out at: G2 robust z-score 0.118; G2 cells, % of GMNN control 3.8; inactive.
REEP5 [SID160719459] gave G2 robust z-score 0.132; G2 cells, % of GMNN control 3.89; inactive.
Depletion of REEP5 [SID160719460] resulted in: G2 robust z-score -0.562; G2 cells, % of GMNN control -0.984; inactive.
After knock-down of REEP5 [SID160719461] the results were G2 robust z-score -0.217; G2 cells, % of GMNN control 1.44; inactive.
After knock-down of GLOD4 [SID160739902], the record shows G2 robust z-score -0.0844; G2 cells, % of GMNN control 2.37; inactive.
For GLOD4 [SID160739903], the values are G2 robust z-score 0.52; G2 cells, % of GMNN control 6.62; inactive.
Against GLOD4 [SID160739904] the deposit lists G2 robust z-score 0.727; G2 cells, % of GMNN control 8.08; inactive.
CDK5RAP3 [SID160750320] scored G2 robust z-score 0.768; G2 cells, % of GMNN control 8.37; inactive.
CDK5RAP3 [SID160750322] scored G2 robust z-score 0.919; G2 cells, % of GMNN control 9.43; inactive.
After knock-down of CDK5RAP3 [SID160750323] the results were G2 robust z-score -0.486; G2 cells, % of GMNN control -0.454; inactive.
LRRC14 [SID160722797] scored G2 robust z-score -0.517; G2 cells, % of GMNN control -0.673; inactive.
Against LRRC14 [SID160722798], the entry reads G2 robust z-score 2.92; G2 cells, % of GMNN control 23.5; inactive.
After knock-down of LRRC14 [SID160735245], the record shows G2 robust z-score -0.611; G2 cells, % of GMNN control -1.33; inactive.
After knock-down of RIOK3 [SID160720786] the results were G2 robust z-score -0.248; G2 cells, % of GMNN control 1.22; inactive.
With knock-down of RIOK3 [SID160720787] the results were G2 robust z-score 1.89; G2 cells, % of GMNN control 16.3; inactive.
RIOK3 [SID160720788] gave G2 robust z-score 0.317; G2 cells, % of GMNN control 5.2; inactive.

In a second layout: entries from further up.
gene knocked down | PubChem SID | G2 robust z-score | G2 cells, % of GMNN control | Call
TWSG1 | SID160733656 | 0.997 | 9.99 | inactive
TWSG1 | SID160733657 | -0.65 | -1.6 | inactive
TWSG1 | SID160745527 | 6.02 | 45.3 | active
